Data as given in PubChem BioAssay AID686938 (Drosophila RNAi Screening Center, 2013)
In all, the deposit lists about 23,000 reagents; below is a random part of those that have a named target and a result. Over the whole deposit, 75 (0.33%) got an active call. 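Raw plate signals without normalisation; calls rest on plate z-scores that were not deposited; ratio present for only 364 wells.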 A plus sign joins genes that one reagent is predicted to hit. Not given: the dose of the treatment.

- Purpose: 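Knock-downs reducing store-operated calcium influx in Drosophila cells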 (primary screen)
- Cell system: Drosophila S2R+ cells
- Reagent: long dsRNA against Drosophila genes, about 0.25 µg dsRNA per well, roughly 10,000 cells
- Time to read-out: 5 days of knock-down before the calcium assay
- Conditions: thapsigargin (SERCA pump blocker) to empty calcium stores; entry signal taken 4 min after adding it
- Read-out: 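Per-well fluo-4 fluorescence in two replicates, unnormalised, measured in resting cells and 4 min after store depletion by the SERCA blocker thapsigargin; ratio of the two present in few wells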
- Scale: calcium entry signal: higher = stronger calcium signal after store depletion; resting calcium signal: higher = higher resting calcium signal
- Rule for the call: 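Hit if the duplicate-averaged plate z-score for entry over resting signal is under −3; wells with weak total dye signal (Fmax z < −2) or more than 5 off-targets removed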
- Calls: active = strongly reduced calcium entry; inactive = no strong reduction

CG5013 [DRSC15695] — calcium entry signal, replicate 1 (fluorescence units) = 3.40e7; calcium entry signal, replicate 2 (fluorescence units) = 5.05e7; resting calcium signal, replicate 1 (fluorescence units) = 1.66e7; resting calcium signal, replicate 2 (fluorescence units) = 6.79e7; call = inactive
trbl [DRSC11901] — calcium entry signal, replicate 1 (fluorescence units) = 2.64e7; calcium entry signal, replicate 2 (fluorescence units) = 4.56e7; resting calcium signal, replicate 1 (fluorescence units) = 1.20e7; resting calcium signal, replicate 2 (fluorescence units) = 1.90e7; call = inactive
CG7810 [DRSC03072] — calcium entry signal, replicate 1 (fluorescence units) = 4.79e7; resting calcium signal, replicate 1 (fluorescence units) = 2.55e7; call = inactive
mora [DRSC16594] — calcium entry signal, replicate 1 (fluorescence units) = 4.60e7; calcium entry signal, replicate 2 (fluorescence units) = 5.02e7; resting calcium signal, replicate 1 (fluorescence units) = 2.46e7; resting calcium signal, replicate 2 (fluorescence units) = 2.04e7; call = inactive

Taken from above:
trbl [DRSC11901], resting calcium signal, replicate 2 (fluorescence units): 1.90e7
Under “call”, CG7810 [DRSC03072] reads inactive

More reagents follow:
eIF3i [DRSC03464] — calcium entry signal, replicate 1 (fluorescence units) = 1.03e7; resting calcium signal, replicate 1 (fluorescence units) = 7.01e6; call = inactive
CG33722 + CG18749 [DRSC12674] — calcium entry signal, replicate 1 (fluorescence units) = 3.30e7; calcium entry signal, replicate 2 (fluorescence units) = 4.16e7; resting calcium signal, replicate 1 (fluorescence units) = 1.56e7; resting calcium signal, replicate 2 (fluorescence units) = 1.88e7; call = inactive
CG33722 + CG18749 [DRSC15386] — calcium entry signal, replicate 1 (fluorescence units) = 5.51e7; calcium entry signal, replicate 2 (fluorescence units) = 3.74e7; resting calcium signal, replicate 1 (fluorescence units) = 2.61e7; resting calcium signal, replicate 2 (fluorescence units) = 1.83e7; call = inactive
CSN1a [DRSC01951] — calcium entry signal, replicate 1 (fluorescence units) = 2.93e7; calcium entry signal, replicate 2 (fluorescence units) = 2.28e7; resting calcium signal, replicate 1 (fluorescence units) = 1.45e7; resting calcium signal, replicate 2 (fluorescence units) = 1.14e7; call = inactive
S [DRSC00785] — calcium entry signal, replicate 1 (fluorescence units) = 4.07e7; calcium entry signal, replicate 2 (fluorescence units) = 4.01e7; resting calcium signal, replicate 1 (fluorescence units) = 1.93e7; resting calcium signal, replicate 2 (fluorescence units) = 1.94e7; call = inactive
CG31323 [DRSC14901] — calcium entry signal, replicate 1 (fluorescence units) = 4.36e7; calcium entry signal, replicate 2 (fluorescence units) = 3.90e7; resting calcium signal, replicate 1 (fluorescence units) = 2.03e7; resting calcium signal, replicate 2 (fluorescence units) = 1.54e7; call = inactive
PolrMT [DRSC00660] — calcium entry signal, replicate 1 (fluorescence units) = 4.96e7; resting calcium signal, replicate 1 (fluorescence units) = 2.32e7; call = inactive
CG7912 [DRSC16343] — calcium entry signal, replicate 1 (fluorescence units) = 4.17e7; calcium entry signal, replicate 2 (fluorescence units) = 5.53e7; resting calcium signal, replicate 1 (fluorescence units) = 2.13e7; resting calcium signal, replicate 2 (fluorescence units) = 2.37e7; call = inactive
